For 107 sequences, z-score results are on record in PubChem BioAssay AID1508600 (Functional Genomics Laboratory (NCATS/FGL), 2020).

About 3,700 (7%) of roughly 53,000 sequences were called active.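 How the source made its calls: active means gene knockdowns whose robust z-score for IL-1 alpha signal is at least 2 or at most -2, so actives lie on both sides; inactive means the rest.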 The list shows a part of the results.

A short description of this test: Components of the Cytosolic LPS Sensing Pathway: Gene Identification via Genome-wide siRNA Screen.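 Further: robust z of the log signal after scaling to non-targeting control siRNA wells of the plate.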 Particulars: RAW264.7 macrophages, IL-1a HTRF, actives lie on both sides, screened at 100 nM (by protocol), cells primed 5 h with Pam3CSK4 first. Put shortly:
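Cells (RAW264.7, 1×10^4 per well) were transfected with siRNA at 100 nM and cultured 48h at 37 degrees C. Pam3CSK4 was added for 5 hours; LipidA transfection followed for 24 hour. IL-1a was then measured by HTRF.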
Background: Time-resolved FRET reads energy transfer from a long-lived donor to a nearby acceptor.
For CGGGUCCUGUGAAGAACUATT against Sugp1, the z-score is inactive: 0.617.
In the case of GCACUGAUUACGCUAAUUUTT against Skap2, the z-score is inactive: 0.264.
Next, GGCACUUGUGAGAAAAAUCTT against Insc: inactive: -1.66.
For GGAGAGCAUUUCUUAAGAATT against Pex14, the z-score is inactive: -0.645.
Next, GCUAACCUUUGGAAUUGGATT against Rnf139: inactive: -0.0299.
As for CCCGUUUGAGCUACUUCUUTT against Rgs2, the z-score is inactive: -0.807.
GGCAUAUCCUCCUUAUCCATT against Dazl: the z-score was active: -2.2.
Next, GCUGUUCCAUGUUAAAAAATT against Esm1: inactive: 0.765; CCCAUCAGAUUGUUAUUAATT against Olfr652: inactive: 0.84.
Under CCAGAUGACAAAUUUACCCTT against Tdpoz4 stands inactive: 0.655; under GGGACUGGAAUUGACAUCCTT against Trpm4, inactive: -1.38; under GGAACAGAUACCUUUCUAUTT against Odam, inactive: 1.12.
With GCAGAAAAACCUGUGAAAATT against Pcnp, the z-score was inactive: 1.57.
Under AAAGCGCAUUCACAAAAAUTT against Olfr1453 stands inactive: 0.197.
Take GGAGAGGAAGACUUUGAAUTT against Pin1: the z-score is inactive: -0.594.
Next, AGAAAACUCGAGGUGACCATT against Znhit1: inactive: -0.288.
Next, GGGCAUUGGAAAACUAAAGTT against Lrrc1: inactive: 0.829; GGUAAAAGGUGCCCUUCAATT against Olfr1056: inactive: -0.517.
On to GGAAUGAUGCCACAGAGGUTT against Sost, for which the z-score is inactive: 0.413.
Next, GGUUACAGUAAUUCAGUGUTT against Tdrp: inactive: -0.372; GCCAACUUGUACCAAACGCTT against Slc25a19: inactive: 0.398.
Consider GCAUGAUGCAAGGACUCUCTT against Onecut2, for which the z-score is inactive: 1.08.
Under GGUGAUAAAACCUGUUUCATT against Col19a1 stands inactive: 0.256; under GCACAACAUCGAAAUUGAGTT against Lingo1, inactive: -1.1; under GCUACUACAGUCAGUCGCATT against Galr2, inactive: 0.537.
Next, GGAUGCAGAUGCUGUGGACTT against S100a1: inactive: -0.918; GCCCGUCGGAAAGAAGAAATT against Gpatch11: inactive: 0.66; GGCUACAGGGUCUUAUUUCTT against Alx3: inactive: 0.952.
Next, GGACAUAUAUAGCAAGGAGTT against Polrmt: inactive: 1.07.
Take GGAUAAUUUGGAUUUCGAGTT against Pcdhgb2: the z-score is inactive: -0.172.
Consider GCUUGCUCGGAGCUUAAGATT against Pik3c3, for which the z-score was inactive: 0.286.
Next, GCCCAAGCGAUCUUUGCAUTT against Vangl2: inactive: -0.273; GGCUGAGAAGCUAAAGGAGTT against Pabpn1: inactive: -1.97; GGAUUACCCAUCCUACACATT against Eya4: inactive: 0.011.
Under GGUUAACUUGAGCUCUGUGTT against Znrf4 stands inactive: -1.98; under UUGUGAUUCCAAUUUCCCUTT against Olfr1330, inactive: -0.32.
Next, GGUAAAACUGUAGUGAUCGTT against Slfn4: inactive: -1.21; GCUACGUCACUUCUGUUUUTT against Acmsd: inactive: -0.0522.
With GCGAAUGGAUUGCUACAAUTT against Klhl7, the z-score is inactive: 1.47.
Under GCUCACAUUGAGUGGUUGGTT against Ncbp3 stands inactive: 0.542.
Take GGGAGUCAUUCCCAAUGAUTT against Mras: the z-score is inactive: 0.776.
As for GCUGGUGAUUCCUAAACUGTT against Oprd1, the z-score was inactive: -0.847.
Under CCAAGAUUACUGAACCUACTT against Lin28a stands inactive: 0.216; under GGUGUUCCACAAGCAAUGGTT against Vmn1r234, inactive: -0.251.
Take GCUUGGCCAUCAUUGGAGCTT against H2-Q6: the z-score was inactive: 0.882.
Next, GGAACAUACUGCUAAUAUGTT against Brcc3: inactive: -0.202; GGAGACUUUUGAAAUAGAATT against C8a: inactive: -0.588.
Next, GGAAAGUGUCACCAAGUUCTT against Trav13-5: inactive: 0.0286.
Next, GCAAUGGCUGAAAUCCUCCTT against Dnmt3l: inactive: 1.49; GGAGGGACAUGAUUUUGAATT against Pfkfb2: active: 2.22.
Consider GGUGCUGAUUACAGUAGAATT against Pcdhga10, for which the z-score is active: 2.01.
Next, GCUGGAUAAGAAUGGCGAUTT against S100g: inactive: 1.94; GGUGAACACCGUUCAGUUUTT against Wdr83: inactive: -0.396.
Next, GGUGAACUUGACCUCACAGTT against Sp1: inactive: -0.416.
On to GCAUGUACGUCGCCUUGUUTT against Dctd, for which the z-score was inactive: 0.242.
Next, GGCUUACAGUCCUGAAUUUTT against Gpr17: inactive: 1.97.
Under GCCUUUGCUGAGAUAACUUTT against Birc5 stands inactive: 0.6; under GGGUCCCUAAGCAUGUUCCTT against Slfn10-ps, inactive: 0.618.
Next, GGUUCCAAGAACCCUCAUCTT against Swap70: inactive: -0.368; GCCACCCAGUUAUUUGAAATT against Dmac1: inactive: 0.913.
On to CCAGCCUGAAAGAAGAGAATT against Ifna14, for which the z-score was inactive: 0.116.
Next, CGAAUACUUGAUGUCCAUGTT against Harbi1: active: -2.16.
Next, GGCAGUAACUUAAAACAGATT against Mecp2: inactive: -0.139; CGUGGUUAAGUCACGACUGTT against Slc25a29: inactive: 0.7.
Next, CCGAUGGAGGUUCCUACUGTT against Cry2: inactive: -0.285; GCUAUUUGACUUGUUGUAATT against Rab30: inactive: 0.269.
Regarding GGCAUUUGGGACUUGUGUGTT against Olfr78, the z-score is inactive: -1.96.
GGGACUUUGCCAAGAAUACTT against Klkb1: the z-score was inactive: 0.0402.
Next, GGACAAACUCCGAGACUCCTT against Utf1: inactive: -0.339.
As to CGCCUUAUAAUAUACCUAUTT against Clmp, the z-score was inactive: 1.12.
Next, GCUGAAUGCCCAAUGCACUTT against Gabra1: inactive: -0.837; GGAAGAGAACCAAAACACATT against Zfp647: inactive: -0.77.
Next, GGUGGUAGUUAAUAAAGCUTT against Ctnnb1: inactive: -0.236.
Under GGUUUUUGUGGCUGAUCUUTT against Zfp711 stands inactive: -0.545; under GGUUAUGAUCGGCAUCGCUTT against Fam24a, inactive: -1.46; under GGAAUUCAUGAAGUAUAACTT against Myo5c, inactive: 0.941.
Take GCUGUGACUCUACUGGAGGTT against Zfp397: the z-score was inactive: 0.746.
For the sequence GCAGUCGAGAUCAAACAGGTT against Crabp2, the z-score is inactive: -0.302.
Turning to GGGUUUUCUAACAUUCAAATT against Pigm, the z-score is inactive: -0.313.
Under GGAAGAAGAAAAGAAAGACTT against Gphn stands inactive: -0.472; under GGAGACCGUAGUGUUCAUCTT against Lypd4, inactive: -0.107.
On to GGCCAUGGCAGCUUAGAUUTT against St8sia1, for which the z-score is inactive: 0.441.
Next, GGAAAUGUGCUUUAUUCGUTT against Tktl1: inactive: 1.75; CCUUUUUCGAAAAAUCAGGTT against Lyst: inactive: -0.39; GGCAAGUUCAAUAAAAUGUTT against Bik: inactive: 0.818.
Under GGAUCUUCCAAGUUGUCUGTT against Srm stands active: 2.42; under CCACUGGUCAUUCUUGCUUTT against Olfr228, inactive: 0.248; under GGUGGAUGAAGACUACAUCTT against Csnk2b, inactive: 1.35.
Next, CGACCUUAAGCUAAGCAGUTT against Aff3: inactive: 1.18; GGAGAAGAAAAAGAUUAUCTT against Atp6v1d: inactive: 1.07; GGAAGAGUGACCUUAAGUCTT against Arhgap30: active: 2.29.
Regarding CGGUUCUCUAAAUGGCUCATT against Rhox12, the z-score is inactive: -1.83.
Next, GGUGGAGUCAGUAUAAAUCTT against Yars2: inactive: 1.01; GGGUUCUCUAUAUCACAGGTT against Mrgpra3: inactive: 0.000381.
Next, “CGCAGACGUACAAGUCUCATT against 1700018B24Rik”: inactive: 0.157; GGUGACCUUGAACAAGCCCTT against Odf3: inactive: 0.977.
Consider GCCGGUCCUCUCUUACUACTT against Irs1, for which the z-score was inactive: 0.385.
CGAACACCGGUUACAAACUTT against Odf3b: the z-score was inactive: 0.437.
In the case of GGAGUCUUGGAAAAAAGGCTT against Rep15, the z-score is inactive: -1.65.
As to GGAAGAAUAUUGGCCCUGUTT against Il17rd, the z-score is inactive: 0.0647.
Regarding GGCAUUGACACAAGGGAUGTT against Olfr975, the z-score was inactive: -0.319.
Next, CCCUCUGUGGUUAAAGACUTT against Tctex1d2: active: -2.88; GCGACGGCUUAUAUGGGUUTT against Lypd9: inactive: 1.25; GGGCUACUACAAUGAGUACTT against Phospho1: inactive: 0.412.
For GGUGUUACCAAGAGUGACUTT against Trp53i13, the z-score was inactive: -0.653.
On to CGAACCAGGAAAUGGAUUCTT against Crhbp, for which the z-score is inactive: 0.598.
For the sequence GGUUACCAGUUAUAUGGCGTT against Mccc2, the z-score is inactive: -0.601.
